Experimental data taken from publication PMC10858191.
No constants are given. Whether binding was seen depends on the method and setting. Some binding calls cover weakened binding; strength is not graded here.

The chains behind the UniProt entries cited, without tags or fusion partners. Where a name states a change or a piece, a line headed by the entry shows the natural chain unless it says otherwise.
UniProt Q13257: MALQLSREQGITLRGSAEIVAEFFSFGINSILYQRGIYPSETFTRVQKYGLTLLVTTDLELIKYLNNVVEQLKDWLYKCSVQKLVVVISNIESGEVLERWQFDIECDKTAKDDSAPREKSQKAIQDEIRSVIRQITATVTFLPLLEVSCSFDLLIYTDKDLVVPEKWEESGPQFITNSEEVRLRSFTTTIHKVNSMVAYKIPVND
UniProt O60566: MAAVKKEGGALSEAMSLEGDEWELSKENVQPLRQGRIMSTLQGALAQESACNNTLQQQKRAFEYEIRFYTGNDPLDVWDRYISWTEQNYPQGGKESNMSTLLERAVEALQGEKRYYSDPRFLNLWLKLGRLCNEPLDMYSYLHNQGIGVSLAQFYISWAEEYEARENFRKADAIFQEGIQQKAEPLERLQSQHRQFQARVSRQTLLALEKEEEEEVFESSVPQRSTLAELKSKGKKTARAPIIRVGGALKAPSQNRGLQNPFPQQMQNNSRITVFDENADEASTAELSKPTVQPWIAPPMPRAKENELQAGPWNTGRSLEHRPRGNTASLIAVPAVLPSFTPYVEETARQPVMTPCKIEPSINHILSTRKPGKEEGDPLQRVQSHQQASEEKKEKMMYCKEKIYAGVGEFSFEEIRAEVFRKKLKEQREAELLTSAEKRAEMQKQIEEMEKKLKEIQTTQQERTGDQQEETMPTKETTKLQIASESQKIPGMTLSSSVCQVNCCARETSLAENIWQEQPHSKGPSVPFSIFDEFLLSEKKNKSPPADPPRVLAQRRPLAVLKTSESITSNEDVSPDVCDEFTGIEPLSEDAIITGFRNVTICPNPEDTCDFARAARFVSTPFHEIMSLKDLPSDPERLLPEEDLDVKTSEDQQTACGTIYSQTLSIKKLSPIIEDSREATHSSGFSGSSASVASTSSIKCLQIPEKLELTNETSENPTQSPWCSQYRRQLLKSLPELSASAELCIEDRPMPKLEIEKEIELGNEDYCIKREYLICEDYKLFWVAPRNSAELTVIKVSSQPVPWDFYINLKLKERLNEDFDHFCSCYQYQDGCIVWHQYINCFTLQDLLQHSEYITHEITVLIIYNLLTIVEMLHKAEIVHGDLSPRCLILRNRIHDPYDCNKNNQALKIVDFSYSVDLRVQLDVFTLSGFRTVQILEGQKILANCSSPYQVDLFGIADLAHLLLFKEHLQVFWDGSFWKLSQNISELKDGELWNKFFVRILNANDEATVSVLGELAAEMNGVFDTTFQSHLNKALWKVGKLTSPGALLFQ

Target: Mad2-StrepII (recombinant) (UniProt Q13257)
Experiment: co-purification of co-expressed proteins (StrepTactin, GSTrap, SEC); Cdc20, BubR1 and Mad2 baculoviruses coinfected in High Five cells; lysate over StrepTactin (Mad2-StrepII), then GSTrap HP (BubR1-GST), TEV and HRV-3C on ice 4 h, then Superose 6 increase 10/300; 50 mM HEPES pH 7.5, 200 mM NaCl, 0.5 mM TCEP, 5% glycerol

binding: binds
Substance: BubR1-GST I242D/I243D/V245D/L249D (4D) (recombinant) (from UniProt O60566 1-1050)
